According to patent US7528141B2, “Use of cyclopenta[g]quinazoline derivatives for treating cancer” (BTG International Limited, priority 2001, dated 2009):
Where “and” joins values, the source holds several entries; their conditions need not be identical. Equal values may be shown once. At least one read-out could not be matched to a standard name with certainty.

System: KB cells
Assay: Inhibition of cell growth, KB cells;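 further: KB nasopharyngeal carcinoma cells express the α-folate receptor, and leucovorin at 20 nM was the folate source in the growth medium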
Conditions: read-out: Inhibition of cell growth, IC50, KB + 1 μM FA; 20 nM LV, + 1 μM folic acid

C#CCN(c1ccc(C(=O)N[C@@H](CCC(=O)O)C(=O)O)cc1)C1CCc2cc3nc(CO)[nH]c(=O)c3cc21 (stereo partly drawn) [CB300959 (R, S), reference compound]
IC50: 5.8 µM and 4.8 µM
